Reference: patent publication US5798392A, “Sulfonyl fluorides for the treatment of Alzheimer's disease” (The Board of Regents of the University of Texas System, priority 1996, dated 1998)
For at least one compound, name, drawing or mass did not settle the structure.

Protein sequences, listed by entry. Tags and fused reporters are not part of them. Residues count along the entry.
UniProt P06276, 29-602: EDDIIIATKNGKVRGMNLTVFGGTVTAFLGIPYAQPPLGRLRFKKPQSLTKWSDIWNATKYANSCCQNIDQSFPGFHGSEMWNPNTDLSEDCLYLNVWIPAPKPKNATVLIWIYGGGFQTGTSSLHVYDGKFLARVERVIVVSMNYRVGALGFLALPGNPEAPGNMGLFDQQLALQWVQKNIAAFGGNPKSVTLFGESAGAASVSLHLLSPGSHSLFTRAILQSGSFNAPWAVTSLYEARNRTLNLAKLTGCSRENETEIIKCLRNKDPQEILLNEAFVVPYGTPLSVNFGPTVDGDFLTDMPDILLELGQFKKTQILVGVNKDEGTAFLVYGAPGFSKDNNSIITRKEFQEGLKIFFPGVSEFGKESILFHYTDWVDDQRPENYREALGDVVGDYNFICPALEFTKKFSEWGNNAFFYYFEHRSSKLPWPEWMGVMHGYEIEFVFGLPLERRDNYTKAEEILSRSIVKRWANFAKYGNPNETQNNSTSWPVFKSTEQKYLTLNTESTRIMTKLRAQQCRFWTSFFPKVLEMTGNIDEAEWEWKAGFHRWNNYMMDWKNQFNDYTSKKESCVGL

Biological target: plasma butyrylcholinesterase (Homo sapiens, UniProt P06276)
Assay: Plasma butyrylcholinesterase substrate kinetics
Assay type: biochemical
Details: butyrylthiocholine substrate, pH 7.4, 25° C

With CCCC(=O)SCC[N+](C)(C)C [butyrylthiocholine] the “Butyrylcholinesterase Vmax” value was 4.853 (SEM=0.135) ×10^-6 moles/min/gm plasma.
